Experimental data: PubChem BioAssay AID1259254 (NCATS, 2017)

Test: 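Finding genes that stop cells copying their DNA twice in one cycle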 (primary screen)
Cell system: human HCT116 colorectal cancer cells
Reagent: single siRNA against human genes
Duration: 3 days
Read-out: 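Imaged Hoechst DNA stain sorts each cell into a cycle phase by DNA amount; per plate, G2 fraction set to 0% for non-targeting and 100% for GMNN siRNA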
Scale: G2 robust z-score: higher = more G2 cells, more excess DNA replication
Hit rule: 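An siRNA counts as active if its G2 robust z-score lies at least 5 MADs above the screen median; here such calls match roughly 38% of GMNN control or more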
Here is a random part of about 59,000 deposited reagents. Over the whole deposit, about 1,550 (2.6%) were called active. 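G2 share is only a proxy for re-replication; each gene was hit by three separate siRNAs, and active genes were retested.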 The numbers tell different reagents against one gene apart. Further read-outs or replicates are left out here. Reagent sequences are not shown. Not given: the amount of reagent.

The first 2 records, ahead of the listing:
SLC43A1 #1
- G2 robust z-score: 0.5
- activity call: inactive

SLC43A1 #2
- G2 robust z-score: 0.787
- activity call: inactive

Main list, from the start:
SLC43A1 #1
- G2 robust z-score: 0.5
- activity call: inactive

SLC43A1 #2
- G2 robust z-score: 0.787
- activity call: inactive

SLC43A1 #3
- G2 robust z-score: 0.212
- activity call: inactive

FHOD3 #1
- G2 robust z-score: 0.006
- activity call: inactive

FHOD3 #2
- G2 robust z-score: -0.343
- activity call: inactive

FHOD3 #3
- G2 robust z-score: -0.817
- activity call: inactive

GPX4 #1
- G2 robust z-score: -0.306
- activity call: inactive

GPX4 #2
- G2 robust z-score: -0.893
- activity call: inactive

GPX4 #3
- G2 robust z-score: 1.03
- activity call: inactive

C11orf65 #1
- G2 robust z-score: -0.509
- activity call: inactive

C11orf65 #2
- G2 robust z-score: 6.08
- activity call: active

C11orf65 #3
- G2 robust z-score: 0.706
- activity call: inactive

CCNQP1 #1
- G2 robust z-score: 0.866
- activity call: inactive

CCNQP1 #2
- G2 robust z-score: 0.195
- activity call: inactive

CCNQP1 #3
- G2 robust z-score: -0.419
- activity call: inactive

VPS35L #1
- G2 robust z-score: 0.00852
- activity call: inactive

VPS35L #2
- G2 robust z-score: 1.14
- activity call: inactive

VPS35L #3
- G2 robust z-score: -0.455
- activity call: inactive

ELMO1 #1
- G2 robust z-score: -0.358
- activity call: inactive

ELMO1 #2
- G2 robust z-score: 0.096
- activity call: inactive

ELMO1 #3
- G2 robust z-score: 2.2
- activity call: inactive

FABP5 #1
- G2 robust z-score: -1.45
- activity call: inactive

FABP5 #2
- G2 robust z-score: -0.812
- activity call: inactive

FABP5 #3
- G2 robust z-score: -0.731
- activity call: inactive
